These results are taken from PMC8024263.

The chains behind the UniProt entries cited, without tags or fusion partners.
UniProt P60766: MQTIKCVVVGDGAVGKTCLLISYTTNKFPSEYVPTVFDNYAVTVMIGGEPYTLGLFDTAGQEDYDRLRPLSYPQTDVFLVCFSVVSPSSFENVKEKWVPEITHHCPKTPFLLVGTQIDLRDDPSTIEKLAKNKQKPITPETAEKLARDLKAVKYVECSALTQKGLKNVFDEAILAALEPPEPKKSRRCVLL

For this experiment, the target named is T1, Cellular repressor of E1A-stimulated genes (CREG) (mouse (endogenous in 3T3 fibroblasts)) (UniProt O88668).
T1 sequence: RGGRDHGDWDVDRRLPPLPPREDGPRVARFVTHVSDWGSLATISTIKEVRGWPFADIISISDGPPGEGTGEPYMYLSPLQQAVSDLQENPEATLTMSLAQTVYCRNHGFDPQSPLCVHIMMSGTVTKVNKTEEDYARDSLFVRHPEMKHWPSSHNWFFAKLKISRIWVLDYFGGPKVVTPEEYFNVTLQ
The experiment is described as follows: co-IP; protein of mouse 3T3 fibroblasts (1000 ug) incubated with CREG, CDC42 or IgG antibody and protein A/G beads overnight at 4 °C; beads washed 3 times; CREG and CDC42 detected by western blotting; both directions (Fig. 8H, I). (Immunoblotting shows a protein as a band on a membrane.)

Results are given in words; binding and its absence hold for the method and conditions named. Binding seen in cells or lysates may run through a third protein.

As to “cell division control protein 42 (CDC42) (from UniProt P60766 1-191)”, the binding result was “no binding”.
